Some of the results follow.

The chains behind the UniProt entries cited, without tags or fusion partners.
UniProt Q0JBA9, entry or part of it: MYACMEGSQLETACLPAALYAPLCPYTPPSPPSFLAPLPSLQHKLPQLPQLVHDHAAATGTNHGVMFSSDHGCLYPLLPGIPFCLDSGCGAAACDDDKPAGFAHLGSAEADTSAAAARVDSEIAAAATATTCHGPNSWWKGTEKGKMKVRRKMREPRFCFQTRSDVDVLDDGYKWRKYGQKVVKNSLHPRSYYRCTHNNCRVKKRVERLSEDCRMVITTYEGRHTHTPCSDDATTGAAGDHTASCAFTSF

The target in this experiment is OsWRKY34 (Oryza sativa, UniProt Q0JBA9 1-250). Briefly: protein-binding microarray (RPBM); PBS, 2% BSA, 51.3 ng/ul salmon testes DNA, 50 uM zinc acetate, 200 nM TF, 25 C, 1 h; high values mean tight binding. Particulars: protein: recombinant; tags: N-terminal polyhistidine and DsRed monomer fusion (pET32a); label: CyDye5-dUTP incorporated in the synthesized complementary strand; 3' TTTTT single-stranded linker to array surface; dsDNA, one strand shown. The gist of the method:
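The binding signal is fluorescence intensity per array feature (arbitrary units). Readings came from an Axon 4000B scanner after a washed, 2% BSA-blocked, double-stranded custom Agilent array had been incubated for 1 h at 25 °C with 200 nM protein and 50 µM zinc acetate. The protein was a Ni–NTA-purified transcription factor fused N-terminally to polyhistidine and DsRed, expressed in E. coli BL21-CodonPlus.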
Turning to “CCAGCCCATCTGACTCATCGCGCCCGCCCCAGTCGATCTCCGGAGTCACCTAGTGCAG”, the binding signal is 8540 fluorescence intensity (a.u.).
The result for “ATATCTGTTTTTACGGTTCGAGGACGTTTTTATATCCGATCGGAGTCACCTAGTGCAG” reads 8940 fluorescence intensity (a.u.); that for “CCAAAATACCACTACTACCCTTGCTTATTTGACCTCATTCCGGAGTCACCTAGTGCAG”, 10700 fluorescence intensity (a.u.); that for “ACAGCCCGCGCCGAACAGTTTCACCCTGTCCTCGTCACGTCGGAGTCACCTAGTGCAG”, 8460 fluorescence intensity (a.u.).
The result for “CGTCGCGCTGCCTTTGGTCTCGTACTCCCGTGGGGAACTACGGAGTCACCTAGTGCAG” reads 8270 fluorescence intensity (a.u.); that for “TCCCCATCCGCAACCTCTTCATCCTCGAGTCATGGCCTTTCGGAGTCACCTAGTGCAG”, 9050 fluorescence intensity (a.u.).
To “CCAAAATTTTTCTATTCGCGAACTATATGAGGCCTTAGTACGGAGTCACCTAGTGCAG” belongs 9560 fluorescence intensity (a.u.); to “GAGTAGGGGTAGTTCAATGGTATTTTTATGTAAATACACTCGGAGTCACCTAGTGCAG”, 8110 fluorescence intensity (a.u.); to “ATAGATGTAGATATCTGACCCATTTTCACTCCCTACTCAACGGAGTCACCTAGTGCAG”, 8410 fluorescence intensity (a.u.).
For “AACATGTTTAAAAAAGTCAACGGCGTCGAACATTTAGAGACGGAGTCACCTAGTGCAG”, the binding signal was 14200 fluorescence intensity (a.u.).
Turning to “TGCTTCCATCACCTCACTCTGTTGGGTAATGCTCATAAATCGGAGTCACCTAGTGCAG”, the binding signal is 8290 fluorescence intensity (a.u.).
To “TGCTCGCTCTGGACGCGTCGCCGCGCCCGCTCGGCTTCTTCGGAGTCACCTAGTGCAG” belongs 9130 fluorescence intensity (a.u.); to “TTATCTATCCGTATTGGCTCCGTTTTCATCCCTAGTTTCGCGGAGTCACCTAGTGCAG”, 10000 fluorescence intensity (a.u.).
The result for “CCTGTGTATTTGTTGGTCTATTTGGTTTCCTTGGATGGGACGGAGTCACCTAGTGCAG” reads 14500 fluorescence intensity (a.u.).
The result for “ACATATTTTTAATACTGGCTATATTCGGCTGTCATTATTTCGGAGTCACCTAGTGCAG” reads 8930 fluorescence intensity (a.u.); that for “CCGTTTAAACTTTGACCACCAATTACTTTTTTAAATAGTTCGGAGTCACCTAGTGCAG”, 8350 fluorescence intensity (a.u.); that for “TCCCTCGATCCATAACCGACCGACCAATTACGCGCCGTACCGGAGTCACCTAGTGCAG”, 9630 fluorescence intensity (a.u.).
Consider “AACCCTAAAATCTCTCTCTCTCTCTCGATCCCCTAACGCGCGGAGTCACCTAGTGCAG”, for which the binding signal is 8640 fluorescence intensity (a.u.).
The result for “GGAAAAAGAACAATCTGCGACCAACCTCTTTTTTCTATCCCGGAGTCACCTAGTGCAG” reads 8980 fluorescence intensity (a.u.).
In the case of “AACAAACACTATTACCGTGTATCCCAAGTTGCCTTTTCATCGGAGTCACCTAGTGCAG”, the binding signal was 9310 fluorescence intensity (a.u.).
The result for “ATCGTGATCTCCGTACGTTAGGTTGGTTTCTTTGTTTTTCCGGAGTCACCTAGTGCAG” reads 11400 fluorescence intensity (a.u.).
As for “CTGTGATGTTGCACACTGTCTCACTTCATTTGGCTCATGACGGAGTCACCTAGTGCAG”, the binding signal is 10700 fluorescence intensity (a.u.).
With “AAATCAACAAGGGTCTAGTGTTTTTCTTCCGCCTCAAAATCGGAGTCACCTAGTGCAG”, the binding signal was 8620 fluorescence intensity (a.u.).
With “ACTTGGCACCCTCTCCCGTCCCGCCGCGGCCGCGCGTTTCCGGAGTCACCTAGTGCAG”, the binding signal is 9970 fluorescence intensity (a.u.).
The result for “ACCGATTTCTCTCTTTTTGCAACAAATCGGATCACGTCTTCGGAGTCACCTAGTGCAG” reads 12700 fluorescence intensity (a.u.).
To “GCATGGTAGCGCCCGCGCTTAATTCTTCTCACATGCATGTCGGAGTCACCTAGTGCAG” belongs 8480 fluorescence intensity (a.u.).
“ACATCACCTGCCGATCATTAAGCATTTACACCGTGAGTCTCGGAGTCACCTAGTGCAG”: the binding signal is 8420 fluorescence intensity (a.u.).
To “AAGAATATTCTTTGAAGTGTTTTGTGTTGTACTTGCATTCCGGAGTCACCTAGTGCAG” belongs 8990 fluorescence intensity (a.u.).
The result for “GTGTATTTATGGTTTTTTTTTCAACGTTTGACCATCCGTTCGGAGTCACCTAGTGCAG” reads 12300 fluorescence intensity (a.u.); that for “CTAATATTTTTTATTTTTTAATTCCGAATTTCAACTATTTCGGAGTCACCTAGTGCAG”, 9020 fluorescence intensity (a.u.); that for “CGTTTCGTTCCTTCCCGTTCCCGAGGAAATATCCCCATTCCGGAGTCACCTAGTGCAG”, 9070 fluorescence intensity (a.u.).
Regarding “TTAGACCTCATTGCTATTTCTTTATTGATCCGCCACTGATCGGAGTCACCTAGTGCAG”, the binding signal is 8340 fluorescence intensity (a.u.).
The result for “TTCTCTCGTTGACCTAAAAACTTCTCTTTCACCGAACATCCGGAGTCACCTAGTGCAG” reads 10600 fluorescence intensity (a.u.).
The result for “GACCTATGTGCTAATTATCACTAGTAGCTATCCTTTTGTTCGGAGTCACCTAGTGCAG” reads 8550 fluorescence intensity (a.u.); that for “CTTACTTGGTCACTCCCTTTTTGTTATCTGATTTAGACGTCGGAGTCACCTAGTGCAG”, 8230 fluorescence intensity (a.u.).
To “CTTCGCCGTCGCCGCCTCCGCCGCCGCGGGCTCGCATCGCCGGAGTCACCTAGTGCAG” belongs 8420 fluorescence intensity (a.u.).
Take “CGACGTACCGTAGCCGATTTCTGTTGCTATTATCATGTTCCGGAGTCACCTAGTGCAG”: the binding signal is 9450 fluorescence intensity (a.u.).
To “TCCGTGCGGTCCGCCCGTTCGTTATCCGAATCCACCCAAACGGAGTCACCTAGTGCAG” belongs 8120 fluorescence intensity (a.u.); to “TCTGCCTCACCCTACTTTTTTGTCATGTCCATAAACCACACGGAGTCACCTAGTGCAG”, 10600 fluorescence intensity (a.u.); to “ACTATTGAAAATGATTCACTGTACTCACTAATAGCATTTTCGGAGTCACCTAGTGCAG”, 9520 fluorescence intensity (a.u.).
The result for “ATCGAATGGTTGGTTCGGTTTGGTTTTGATTGATCGATATCGGAGTCACCTAGTGCAG” reads 22300 fluorescence intensity (a.u.); that for “ATCACATCACATCACATACGGGGATCCTGGCGGGGTAGGACGGAGTCACCTAGTGCAG”, 9610 fluorescence intensity (a.u.).

The record behind these values is paper PMC7819943, “Rice protein-binding microarrays: a tool to detect cis-acting elements near promoter regions in rice”.
